Counter-ions that a name gives are not always drawn. ± gives the standard deviation of the averaged measurements. The list shows a part of the results. Part of the spread comes from offsets between plates or batches.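 The cells are a mouse kidney inner medullary collecting duct line, silenced either for the ciliary gene Rpgrip1l or with a non-targeting control siRNA.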
Assays:
mIMCD3 [1] = test: robust z score of cell number vs plate controls; higher = more cells (less cytotoxic); conditions: 10 µM, 48 h
mIMCD3 [2] = test: robust z score of cilia incidence (% cells with single cilium) vs plate controls; higher = more ciliated cells; conditions: 10 µM; 48 h; siRNA: siScr
mIMCD3 [3] = test: robust z score of cilia incidence (% cells with single cilium) vs plate controls; higher = more ciliated cells (rescue of cilia loss); conditions: 10 µM; 48 h; siRNA: siRpgrip1l

SMILES | robust z score of cell number (mIMCD3 [1]; siRNA: siRpgrip1l) | robust z score of cell number (mIMCD3 [1]; siRNA: siScr) | robust z score of cilia incidence (mIMCD3 [2]) | robust z score of cilia incidence (mIMCD3 [3])
CC(C)(C)OC(=O)c1ncn2c1[C@@H]1CCCN1C(=O)c1c(Br)cccc1-2 [Bretazenil] | -13.2 ± 4 | -5.12 ± 0.087 | -7.67 ± 5.2 | -13.7 ± 6.9
c1ccc2nc(N3CCNCC3)ccc2c1 [Quipazine dimaleate] | -9.19 ± 11 | -3.52 ± 6.3 | -0.982 ± 0.6 | -11.9 ± 5
OC(Cc1ccncc1)C(Cl)(Cl)Cl (centres undefined) | -1.42 ± 2.6 | 0.388 ± 1.8 | 3.75 ± 5.7 | -17.9 ± 8.6
CN1C[C@H](C(=O)N[C@]2(C)O[C@@]3(O)[C@@H]4CCCN4C(=O)[C@H](Cc4ccccc4)N3C2=O)C[C@@H]2c3cccc4[nH]cc(c34)C[C@H]21 [Dihydroergotamine mesylate] | -13.3 ± 3.8 | -13.6 ± 3.7 | -3.18 ± 1 | -9.78 ± 6.2
c1ccc(CCCCN2CCC(c3ccccc3)CC2)cc1 [4-PPBP maleate] | -65.5 ± 44 | -100 ± 89 | -17.6 ± 2.8 | -52 ± 5.5
COC(=O)/C=C/C(=O)N[C@@H]1CC[C@@]2(O)[C@H]3Cc4ccc(O)c5c4[C@@]2(CCN3CC2CC2)[C@H]1O5 [β-Funaltrexamine hydrochloride] | -5.93 ± 1.4 | -3.08 ± 2.8 | -0.604 ± 4.7 | -9.75 ± 2.7

— the supplement of paper PMC12009310
